The text below walks through data of paper PMC7434776.

Results are given in words; binding and its absence hold for the method and conditions named. In cells and extracts the contact can be indirect. Binding calls can cover weak binding; strength is not graded here.

The target in assay [1] is T1, endogenous MTHFD2 (human (endogenous in HCT116)) (UniProt P13995).
T1 sequence: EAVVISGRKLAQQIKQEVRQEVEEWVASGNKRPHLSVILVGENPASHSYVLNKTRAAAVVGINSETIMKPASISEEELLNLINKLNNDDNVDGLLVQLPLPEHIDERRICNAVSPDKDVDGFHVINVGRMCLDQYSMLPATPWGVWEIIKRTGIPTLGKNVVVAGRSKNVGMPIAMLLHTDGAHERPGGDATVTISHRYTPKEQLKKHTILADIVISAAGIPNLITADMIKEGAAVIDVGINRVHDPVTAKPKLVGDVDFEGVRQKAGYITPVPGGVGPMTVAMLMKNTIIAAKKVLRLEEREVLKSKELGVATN
The assay can be described thus: co-IP; endogenous proteins; HCT116 whole-cell lysates incubated with anti-MTHFD2, anti-SIRT3 or control IgG, then Protein-A beads, 4 °C; 1% Nonidet P40 buffer; western blot. (In general: In western blotting, separated proteins are transferred to a membrane and probed.)

For assay [2], the target named is endogenous SIRT3 (human (endogenous in HCT116)). Described as above.

As to “endogenous SIRT3 (human (endogenous in HCT116)) (enzyme)”, in assay [1], the binding entry is recorded as “binds”.

B1: endogenous MTHFD2 (enzyme, UniProt P13995 36-350)
chain: T1 sequence
Regarding B1, the binding entry in assay [2] was “binds”.
